Data source: PubChem BioAssay AID1508597 (Cure First, 2020)

Aim: 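Genes whose silencing sensitises or protects ovarian cancer cells against rucaparib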 (primary screen)
Cell system: human ovarian carcinoma lines grown from tumours: OCI-P5x (papillary serous) and OCI-C5x (clear cell)
Knock-down reagent: siRNA pool against human genes, 1.25 pmol siRNA per well
Timing: 72 h or 96 h, depending on the cell culture
Challenge: rucaparib 20 µM (about IC30) or vehicle, present until read-out
Measurement: 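Luminescent ATP-based viability assay read 72 or 96 h after transfection, depending on culture, given as normalised percent viability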
Scale: viability, normalised: higher = more viable cells remaining
Active means: 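a well counts as a hit if its normalised viability is under 80 percent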
Calls: active = viability under 80%; inactive = viability 80% or more
Here is one part, drawn at random, of about 2,100 reagents tested. 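Calls flag viability under 80% in either arm, not effects specific to rucaparib; the reference for percent is not stated.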 Not stated in the record: the 100% reference.

gene knocked down | rucaparib or vehicle | cell line | technical replicate | viability, normalised (%) | Outcome
ZCWPW2 | Rucaparib | OCI-C5x (clear cell) | 1 | 54.8 | active
ZCWPW2 | Rucaparib | OCI-C5x (clear cell) | 2 | 43.1 | active
ZCWPW2 | Rucaparib | OCI-C5x (clear cell) | 3 | 38 | active
ZCWPW2 | Rucaparib | OCI-P5x (serous) | 1 | 43.6 | active
ZCWPW2 | Rucaparib | OCI-P5x (serous) | 2 | 19.4 | active
ZCWPW2 | Rucaparib | OCI-P5x (serous) | 3 | 43.9 | active
ZCWPW2 | Vehicle | OCI-C5x (clear cell) | 1 | 62.1 | active
ZCWPW2 | Vehicle | OCI-C5x (clear cell) | 2 | 29.2 | active
ZCWPW2 | Vehicle | OCI-C5x (clear cell) | 3 | 55.7 | active
ZCWPW2 | Vehicle | OCI-P5x (serous) | 1 | 45.6 | active
ZCWPW2 | Vehicle | OCI-P5x (serous) | 2 | 52.5 | active
ZCWPW2 | Vehicle | OCI-P5x (serous) | 3 | 57.8 | active
PDK2 | Rucaparib | OCI-C5x (clear cell) | 1 | 46.9 | active
PDK2 | Rucaparib | OCI-C5x (clear cell) | 2 | 50.9 | active
PDK2 | Rucaparib | OCI-C5x (clear cell) | 3 | 47.3 | active
PDK2 | Rucaparib | OCI-P5x (serous) | 1 | 124 | inactive
PDK2 | Rucaparib | OCI-P5x (serous) | 2 | 99.5 | inactive
PDK2 | Rucaparib | OCI-P5x (serous) | 3 | 98.9 | inactive
PDK2 | Vehicle | OCI-C5x (clear cell) | 1 | 58.6 | active
PDK2 | Vehicle | OCI-C5x (clear cell) | 2 | 44.8 | active
PDK2 | Vehicle | OCI-C5x (clear cell) | 3 | 53.1 | active
PDK2 | Vehicle | OCI-P5x (serous) | 1 | 90.5 | inactive
PDK2 | Vehicle | OCI-P5x (serous) | 2 | 81.8 | inactive
PDK2 | Vehicle | OCI-P5x (serous) | 3 | 99.1 | inactive
PIK3CB | Rucaparib | OCI-C5x (clear cell) | 1 | 51.2 | active
PIK3CB | Rucaparib | OCI-C5x (clear cell) | 2 | 43.8 | active
PIK3CB | Rucaparib | OCI-C5x (clear cell) | 3 | 64.7 | active
PIK3CB | Rucaparib | OCI-P5x (serous) | 1 | 38.5 | active
PIK3CB | Rucaparib | OCI-P5x (serous) | 2 | 30.7 | active
PIK3CB | Rucaparib | OCI-P5x (serous) | 3 | 31.5 | active
PIK3CB | Vehicle | OCI-C5x (clear cell) | 1 | 120 | inactive
PIK3CB | Vehicle | OCI-C5x (clear cell) | 2 | 52.2 | active
PIK3CB | Vehicle | OCI-C5x (clear cell) | 3 | 55.3 | active
PIK3CB | Vehicle | OCI-P5x (serous) | 1 | 48 | active
PIK3CB | Vehicle | OCI-P5x (serous) | 2 | 48.4 | active
PIK3CB | Vehicle | OCI-P5x (serous) | 3 | 52.5 | active
PDE11A | Rucaparib | OCI-C5x (clear cell) | 1 | 59.8 | active
PDE11A | Rucaparib | OCI-C5x (clear cell) | 2 | 52.6 | active
PDE11A | Rucaparib | OCI-C5x (clear cell) | 3 | 45.3 | active
PDE11A | Rucaparib | OCI-P5x (serous) | 1 | 67.5 | active
PDE11A | Rucaparib | OCI-P5x (serous) | 2 | 77.5 | active
PDE11A | Rucaparib | OCI-P5x (serous) | 3 | 64.8 | active
PDE11A | Vehicle | OCI-C5x (clear cell) | 1 | 67.3 | active
PDE11A | Vehicle | OCI-C5x (clear cell) | 2 | 52.8 | active
PDE11A | Vehicle | OCI-C5x (clear cell) | 3 | 45.5 | active
PDE11A | Vehicle | OCI-P5x (serous) | 1 | 72.3 | active
PDE11A | Vehicle | OCI-P5x (serous) | 2 | 75.8 | active
PDE11A | Vehicle | OCI-P5x (serous) | 3 | 78.9 | active
MBD6 | Rucaparib | OCI-C5x (clear cell) | 1 | 38.1 | active
MBD6 | Rucaparib | OCI-C5x (clear cell) | 2 | 31.9 | active
MBD6 | Rucaparib | OCI-C5x (clear cell) | 3 | 40.8 | active
MBD6 | Rucaparib | OCI-P5x (serous) | 1 | 67.7 | active
MBD6 | Rucaparib | OCI-P5x (serous) | 2 | 70.1 | active
MBD6 | Rucaparib | OCI-P5x (serous) | 3 | 67.8 | active
MBD6 | Vehicle | OCI-C5x (clear cell) | 1 | 50.8 | active
MBD6 | Vehicle | OCI-C5x (clear cell) | 2 | 50.4 | active
MBD6 | Vehicle | OCI-C5x (clear cell) | 3 | 50 | active
MBD6 | Vehicle | OCI-P5x (serous) | 1 | 72.4 | active
MBD6 | Vehicle | OCI-P5x (serous) | 2 | 83.4 | inactive
MBD6 | Vehicle | OCI-P5x (serous) | 3 | 89.1 | inactive
